PubChem BioAssay AID504467 (National Center for Advancing Translational Sciences (NCATS), 2011)
Out of some 330,000 compounds screened, about 7,700 (2.3%) were called active. Inconclusive results, whose numbers are uncertain, are shown with a selection of clear calls. Calls come from the whole dose curve; as a rule, active = well fitted inhibition curve with a large enough effect; inconclusive = small, poorly fitted or top-dose-only effect, or effect the other way; inactive = flat fitted curve, though single readings scatter. A potency beside an inconclusive call is a rough fit, not a confirmed value.

experiment: qHTS screen for small molecules that inhibit ELG1-dependent DNA repair in human embryonic kidney (HEK293T) cells expressing luciferase-tagged ELG1; conditions: HEK293T ELG1-luciferase reporter, luminescence, 16 h, DNA damage induced by 5-fluorouridine; activity change, negative = inhibition: at 46.1 µM (top of the series); note: nearly all actives have a fitted effect of over 55% in size
In short: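 5-Fluorouridine DNA damage + compound/DMSO, 2,000 cells/well, 16 h, 37 °C/5% CO2. ONE-Glo, 30 min RT, luminescence. Readout = decrease in reporter signal.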
% is set by controls: 0 for no effect and ±100 for the full control effect; potency is the fitted concentration of half-maximal effect.

| Structure (SMILES) | Potency | activity change, negative = inhibition |
| --- | --- | --- |
| Cc1cccc(C(=O)N2CCC(Cc3ccccc3)CC2)c1[N+](=O)[O-] | inconclusive: 7.31 µM [inhibitor, partial curve] |  |
| CC(C)(C)C(=O)Nc1ccccc1N1CCN(C(=O)c2ccc(Cl)cc2)CC1 |  | inactive: -29.6% |
| CCOc1cc(N2CCOCC2)c(OCC)cc1NC(=O)c1cccc(N(C)C)c1 | inconclusive: 20.6 µM [inhibitor, partial curve] |  |
| CCc1ccc(-n2c(SCc3cc(=O)n4cc(Br)ccc4n3)nc3[nH]ncc3c2=O)cc1 | inconclusive: 29.1 µM [inhibitor, single point] |  |
| COC(=O)c1ccsc1NC(=O)CN1CCN(Cc2ccc3c(c2)OCO3)CC1 | active: 5.17 µM |  |
| CC(C)Cn1c(N)c(C(=O)CSc2nc3ccccc3c(=O)n2CCCN2CCOCC2)c(=O)n(C)c1=O | inconclusive: 29.1 µM [inhibitor, partial curve, poor fit] |  |
| COC(=O)c1ccc(Oc2c(C(F)(F)F)oc3c(CN4CCN(C)CC4)c(O)ccc3c2=O)cc1 | inconclusive: 25.9 µM [activator, partial curve, poor fit] |  |
| COc1cc(NC(=O)c2cccc3c2C(=O)N(Cc2cccnc2)C3)cc(OC)c1OC | active: 9.2 µM |  |
| O=C(Nc1ccccc1N1CCCC1)c1ccc([N+](=O)[O-])o1 | inconclusive: 18.3 µM [inhibitor, single point] |  |
| CN1C/C(=C/c2cccnc2)C(=O)/C(=C/c2cccnc2)C1 | inconclusive: 5.17 µM [inhibitor, single point] |  |
| Cc1cc(C)c2c(N)c(C(=O)NCC3CCCCC3)sc2n1 | inconclusive: 5.8 µM [activator, full curve] |  |
| O=C1Nc2ccc(Br)cc2C1=Nc1cccnc1 | inconclusive: 3.26 µM [inhibitor, partial curve, poor fit] |  |
| COc1ccc(NC(=O)CC2SC(=NCC3CCCO3)NC2=O)cc1 (stereo not drawn) |  | inactive: 5.92% |
| CCN(CC)S(=O)(=O)c1cccc(C(=O)N/N=C(\C)c2ccc(O)cc2O)c1 | inconclusive: 2.91 µM [inhibitor, full curve] |  |
| CC(C)CCNC(=O)c1ccc(C2SCC(=O)N2Cc2ccco2)cc1 (stereo not drawn) | inconclusive: 20.6 µM [inhibitor, partial curve, poor fit] |  |
| Cc1cc(C)c(NC(=O)Cn2nnc(C(=O)NCCc3ccccc3)c2N)c(C)c1 |  | inactive: -7.4% |
| O=C(/C(C=Nc1ccc(Br)cc1)=C(/O)c1ccco1)C(F)(F)F | inconclusive: 4.11 µM [activator, full curve] |  |
| CCOC(=O)c1nc(NCc2ccccc2F)c2ccccc2n1 |  | inactive: -22% |

Ordered by molar mass (smallest number first): part of the list above.

| Structure (SMILES) | Potency | activity change, negative = inhibition |
| --- | --- | --- |
| O=C(/C(C=Nc1ccc(Br)cc1)=C(/O)c1ccco1)C(F)(F)F | inconclusive: 4.11 µM [activator, full curve] |  |
| CCOc1cc(N2CCOCC2)c(OCC)cc1NC(=O)c1cccc(N(C)C)c1 | inconclusive: 20.6 µM [inhibitor, partial curve] |  |
| CC(C)Cn1c(N)c(C(=O)CSc2nc3ccccc3c(=O)n2CCCN2CCOCC2)c(=O)n(C)c1=O | inconclusive: 29.1 µM [inhibitor, partial curve, poor fit] |  |
